Experimental data published in the supplement of paper PMC10849652.
This is one part of the list.

Amino acid sequences for entries named in this document (tags omitted). A change or cut given only in a name is not applied to a line headed by its entry.
UniProt P28370, whole entry, looked up: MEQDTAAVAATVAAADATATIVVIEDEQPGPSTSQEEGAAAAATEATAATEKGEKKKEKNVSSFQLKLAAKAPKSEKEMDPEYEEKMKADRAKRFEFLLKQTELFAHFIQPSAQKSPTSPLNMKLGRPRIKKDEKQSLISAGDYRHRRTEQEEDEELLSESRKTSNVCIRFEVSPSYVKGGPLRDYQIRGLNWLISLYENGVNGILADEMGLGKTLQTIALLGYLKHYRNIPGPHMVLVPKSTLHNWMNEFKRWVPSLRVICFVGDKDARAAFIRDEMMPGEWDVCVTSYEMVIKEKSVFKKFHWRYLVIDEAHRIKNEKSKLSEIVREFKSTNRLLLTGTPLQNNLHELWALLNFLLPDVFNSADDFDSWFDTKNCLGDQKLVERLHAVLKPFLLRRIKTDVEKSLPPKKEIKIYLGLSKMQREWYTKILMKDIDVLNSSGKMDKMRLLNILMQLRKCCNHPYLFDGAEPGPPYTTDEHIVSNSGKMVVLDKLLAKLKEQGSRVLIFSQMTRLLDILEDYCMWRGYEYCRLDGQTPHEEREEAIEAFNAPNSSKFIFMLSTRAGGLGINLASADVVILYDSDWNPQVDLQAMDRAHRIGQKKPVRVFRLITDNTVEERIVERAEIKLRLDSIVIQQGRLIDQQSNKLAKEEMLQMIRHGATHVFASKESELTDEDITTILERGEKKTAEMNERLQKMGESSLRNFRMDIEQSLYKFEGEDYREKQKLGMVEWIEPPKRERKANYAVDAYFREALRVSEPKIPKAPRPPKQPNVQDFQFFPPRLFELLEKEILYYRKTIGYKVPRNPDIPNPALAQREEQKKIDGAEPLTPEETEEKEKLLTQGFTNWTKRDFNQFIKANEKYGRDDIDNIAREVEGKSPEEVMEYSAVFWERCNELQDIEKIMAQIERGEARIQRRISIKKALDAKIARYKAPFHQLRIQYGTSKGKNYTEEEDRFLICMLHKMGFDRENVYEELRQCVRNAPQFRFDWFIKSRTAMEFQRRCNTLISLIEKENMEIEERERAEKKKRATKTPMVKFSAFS
UniProt Q7Z3B0: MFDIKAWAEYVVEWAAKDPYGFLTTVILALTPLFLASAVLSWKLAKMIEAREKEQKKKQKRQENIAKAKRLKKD

Key:
Test in all cases: log2 fold change, soluble protein after heating vs DMSO (PISA); higher = thermal stabilisation; K562 cells, 10 uM, 30 min; active = over 0.2 and 3.5 SD of the protein, either way, in both replicates (recomputed)
bafetinib = compound: Cc1ccc(NC(=O)c2ccc(CN3CC[C@H](N(C)C)C3)c(C(F)(F)F)c2)cc1Nc1nccc(-c2cncnc2)n1 [bafetinib]
Procedure, shortened: (§1)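 Quantification of soluble protein used TMTpro 16plex LC-MS/MS, with channel sums equalised. Samples were the supernatant after 21,000xg for 90 min of pooled aliquots from K562 cells (2×10^6 cells/mL) treated with 10 μM compound for 30 min, heated for 3 min over 48°C-58°C, and extracted in PBS with 0.5% NP-40 at 4°C. Values, from duplicates, describe thermal stability against control samples on a log2 fold-change scale.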

[1] = compound: Cc1cccc(CC(=O)N2CCc3c2ccc(-c2cn(C)c4ncnc(N)c24)c3F)n1
Procedure, shortened: as §1

dasatinib = compound: Cc1nc(Nc2ncc(C(=O)Nc3c(C)cccc3Cl)s2)cc(N2CCN(CCO)CC2)n1 [dasatinib]
Procedure, shortened: as §1

[2] = compound: Cn1cc(-c2ccc3c(c2)CCN3C(=O)Cc2cccc(C(F)(F)F)c2)c2c(N)ncnc21
Procedure, shortened: as §1

[3] = compound: Cn1cc(-c2ccc3nnc(C(F)(F)c4ccc5ncccc5c4)n3n2)cn1
Procedure, shortened: as §1

tipifarnib = compound: Cn1cncc1[C@@](N)(c1ccc(Cl)cc1)c1ccc2c(c1)c(-c1cccc(Cl)c1)cc(=O)n2C [tipifarnib]
Procedure, shortened: as §1

mubritinib = compound: FC(F)(F)c1ccc(/C=C/c2nc(COc3ccc(CCCCn4ccnn4)cc3)co2)cc1 [mubritinib]
Procedure, shortened: as §1

[4] = compound: NC(=O)Nc1cc(-c2cccc(F)c2)sc1C(=O)N[C@H]1CCCNC1
Procedure, shortened: as §1

[5] = compound: NC(=O)c1cnc(N[C@@H]2CCCC[C@@H]2N)nc1Nc1cccc(-n2nccn2)c1
Procedure, shortened: as §1

[6] = compound: NC1(c2ccc(-c3nc4ccn5c(=O)[nH]nc5c4cc3-c3ccccc3)cc2)CCC1
Procedure, shortened: as §1

[7] = compound: NCC(=O)Nc1ccc(-n2nc(C(F)(F)F)cc2-c2ccc3c(ccc4ccccc43)c2)cc1
Procedure, shortened: as §1

entinostat = compound: Nc1ccccc1NC(=O)c1ccc(CNC(=O)OCc2cccnc2)cc1 [entinostat]
Procedure, shortened: as §1

vorinostat = compound: O=C(CCCCCCC(=O)Nc1ccccc1)NO [vorinostat]
Procedure, shortened: as §1

citarinostat = compound: O=C(CCCCCCNC(=O)c1cnc(N(c2ccccc2)c2ccccc2Cl)nc1)NO [citarinostat]
Procedure, shortened: as §1

silmitasertib = compound: O=C(O)c1ccc2c(c1)nc(Nc1cccc(Cl)c1)c1ccncc12 [silmitasertib]
Procedure, shortened: as §1

[8] = compound: O=C1NC(=O)C(c2cnc3ccccn23)=C1c1cn2c3c(cc(F)cc13)CN(C(=O)N1CCCCC1)CC2
Procedure, shortened: as §1

[9] = compound: c1cc(OCCN2CCCCC2)cc(-c2n[nH]c3ccc(-c4nnc[nH]4)cc23)c1
Procedure, shortened: as §1

nilotinib = compound: Cc1cn(-c2cc(NC(=O)c3ccc(C)c(Nc4nccc(-c5cccnc5)n4)c3)cc(C(F)(F)F)c2)cn1 [nilotinib]
Procedure, shortened: as §1

[10] = compound: Cc1nc(Nc2n[nH]c3c2CN(C(=O)N[C@H](CN(C)C)c2ccccc2)C3(C)C)c2sccc2n1
Procedure, shortened: as §1

[11] = compound: Cc1ncc(-c2ccnc(Nc3ccc(S(C)(=O)=O)cc3)n2)n1C(C)C
Procedure, shortened: as §1

Measured: log2 fold change

SMARCA1 (UniProt P28370)
inactive: bafetinib 0.094 | [1] 0.056 | dasatinib -0.114 | [2] -0.111 | [3] 0.063 | tipifarnib 0.006 | mubritinib 0.239 | [4] -0.055 | [5] -0.307 | [6] -0.085 | [7] -0.232 | entinostat 0.101 | vorinostat 0.029 | citarinostat 0.036 | silmitasertib 0.027 | [8] 0.007 | [9] -0.073

SMIM15 (UniProt Q7Z3B0)
inactive: bafetinib 0.072 | [1] 0.137 | nilotinib 0.141 | [10] -0.026 | dasatinib 0.004 | [11] 0.007 | [2] 0.036 | mubritinib -0.009 | [4] 0.161 | [5] -0.027 | [6] 0.102 | [7] 0.099 | entinostat 0.045 | vorinostat -0.001 | citarinostat 0.133 | silmitasertib -0.048 | [8] 0.216 | [9] -0.068

SOS1 (UniProt Q07889)
inactive: bafetinib -0.069 | nilotinib -0.161 | [10] 0.075 | [11] -0.013 | [3] -0.076 | mubritinib -0.12 | [4] 0.016 | [5] 0.069 | [6] -0.021 | entinostat -0.008 | citarinostat -0.052 | silmitasertib 0.09 | [8] -0.017 | [9] -0.033
